In PubChem BioAssay AID624291 (National Center for Advancing Translational Sciences (NCATS), 2012):
About 220 (0.063%) of roughly 350,000 compounds were called active. Inconclusive means that the source gave no clear call. Such entries were picked first, then a sample of the others. Calls come from the whole dose curve; as a rule, active = well fitted activation curve with a large enough effect; inconclusive = small, poorly fitted or top-dose-only effect; inactive = no such curve, though single readings can be large or run the other way. Potencies of inconclusive entries are doubtful fits and often do not repeat.

Test: qHTS for Activators of Integrin-Mediated Alleviation for Muscular Dystrophy; note: nearly all actives have a fitted effect of over 60% in size;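 for activation: 100% = response of the positive control SU9516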
Settings: alpha7betagal myoblasts, beta-gal FDG fluorescence, 48 h; activation: at 38.3 µM (top of the series)
Summary of the method: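 Alpha7betagal+/- myoblasts (passage 13) were plated 16-24 hr, then exposed to compounds (1:260 dilution of DMSO stock) for 48 hours at 37C. After MPER lysis, β-galactosidase reporter activity was read as FDG fluorescence (ex 480/em 540) after 30 minutes.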
Potency is the fitted concentration of half-maximal effect.

Which Potency does the source give for `CSC1=C(C#N)C2(CCCCC2)C(C(=O)Nc2ccccc2)=C(C)N1` here?
Its Potency is inconclusive: 3.55 µM [activator, full curve, poor fit].

Which “activation” value does the source give for `Cc1c(NC(=O)C(C)OC(=O)C23CC4CC(CC(Br)(C4)C2)C3)c(=O)n(-c2ccccc2)n1C` (configuration not stated) here?
Its value is inactive: 0%.

With `CCc1nc2ccccc2c(C(=O)NCc2ccccc2)c1C` as the molecule, how does the Potency read?
The Potency was inconclusive: 7.08 µM [activator, partial curve, poor fit].

For `Cc1ccc(C(=O)NC(=S)c2c(C)cc3ccccn23)cc1`, which “activation” value is on record?
The value was inactive: -13.5%.

With `O=C(O)c1ccccc1/C=N/Nc1ccc(S(=O)(=O)Nc2ccc(Cl)cc2)cc1[N+](=O)[O-]` as the molecule, how does the Potency read?
Its Potency is inconclusive: 3.55 µM [activator, full curve, poor fit].

With `O=C(Cc1ccc(Cl)cc1)N1CCC2(CC1)NCCc1[nH]cnc12` as the molecule, how does the Potency read?
Its Potency is inconclusive: 3.55 µM [activator, single point].

With `O=C(c1sc2cc(Cl)ccc2c1Cl)N1CCN(CCc2ccccn2)CC1` as the molecule, how does the Potency read?
Its Potency is inconclusive: 3.55 µM [activator, single point].

Which Potency does the source give for `Cc1cc(-c2ccccc2)cc(C)n1` here?
The Potency was inconclusive: 11.2 µM [activator, single point].

For `Fc1ccccc1N1CCN(c2nc(-c3cccs3)nc3ccccc23)CC1`, which Potency is on record?
The Potency was inconclusive: 12.6 µM [activator, single point].

For `Cc1ccc(NC(=O)C(c2ccccc2)N2CCN(CC(=O)N3CCOCC3)CC2)cc1Cl` (configuration not stated), which activation is on record?
Its activation is inconclusive: -31.4% [activator].

Which Potency does the source give for `C/C(=N\Nc1ccc(S(=O)(=O)N2CCCCC2)cn1)c1cccc(Br)c1` here?
The Potency was inconclusive: 3.16 µM [activator, single point].

Which Potency does the source give for `CC(C)c1ccc(CN(C(=O)c2cccs2)C2CCS(=O)(=O)C2)cc1` (configuration not stated) here?
Its Potency is inconclusive: 3.16 µM [activator, partial curve, poor fit].

For `CCOc1cc(/C=N/NC(N)=O)cc(Br)c1OCc1ccccc1`, which Potency is on record?
The Potency was inconclusive: 28.2 µM [activator, single point].

Which “activation” value does the source give for `COc1ccc(/C=C/C(=O)NC(=S)NNC(=O)c2cccs2)cc1` here?
The value was inactive: -11.9%.

For `CC(Oc1ccc(F)cc1)C(=O)Nc1sc2c(c1C(=O)NCc1cccnc1)CCCC2` (configuration not stated), which “activation” value is on record?
The value was inactive: 13.2%.

With `CCOC(=O)C1=C(C)NC(C)=C(C(=O)OCC)C1c1ccc(C)o1` as the molecule, how does the Potency read?
The Potency was inconclusive: 10 µM [activator, single point].

Which Potency does the source give for `CC(C)(C)c1ccc(C(=O)NCC(=O)N2CCC3(CC2)NCCc2[nH]cnc23)cc1` here?
The Potency was inconclusive: 3.98 µM [activator, single point].

With `CCNC(=O)COC(=O)c1ccc(-n2nc(C)cc2C)cc1` as the molecule, how does the Potency read?
The Potency was inconclusive: 7.08 µM [activator, partial curve, poor fit].

For `Cc1c(C(=O)NNC(=O)Nc2ccc([N+](=O)[O-])cc2)oc2ccccc12`, which Potency is on record?
Its Potency is inconclusive: 1.58 µM [activator, partial curve, poor fit].

For `Cc1cc(OCCCCCn2ccnc2)cc(C)c1Cl`, which “activation” value is on record?
The value was inactive: -26.7%.

With `NC(=O)c1sc2nc3c(c(-c4ccccc4)c2c1N)CCC3` as the molecule, how does the Potency read?
Its Potency is inconclusive: 8.91 µM [activator, partial curve].

For `CC(C)(C)NS(=O)(=O)c1ccc2nc(NC(=O)c3ccc(N4C(=O)CCC4=O)cc3)sc2c1`, which Potency is on record?
The Potency was inconclusive: 8.91 µM [activator, partial curve, poor fit].

With `COc1cccc(-n2nnnc2SCC(=O)Nc2ccccc2OC)c1` as the molecule, how does the “activation” value read?
Its value is inactive: 10%.

Which “activation” value does the source give for `CSc1ccc(C(=S)N2CCN(C)CC2)cc1` here?
The value was inactive: 31%.

Which Potency does the source give for `O=[N+]([O-])c1ccc(-c2nnc3cccc(Cl)n23)cc1` here?
Its Potency is inconclusive: 3.16 µM [activator, single point].

Which Potency does the source give for `Cc1ccc(NC(=O)c2cccc(C(=O)Nc3ccc(C)c(C)c3)n2)cc1C` here?
Its Potency is inconclusive: 28.2 µM [activator, single point].

Which Potency does the source give for `CSc1ccc(C(=O)C2CCCN(C(=O)c3cc4cc(F)ccc4[nH]3)C2)cc1` (configuration not stated) here?
The Potency was inconclusive: 28.2 µM [activator, single point].

Which “activation” value does the source give for `COC(=O)CC1C(=O)NCCN1C(=O)CSc1nc2ccccc2o1` (configuration not stated) here?
Its value is inactive: -3.23%.

Which Potency does the source give for `CCC(=O)NCC(c1cccs1)S(=O)(=O)c1ccc(C)cc1` (configuration not stated) here?
Its Potency is inconclusive: 1.41 µM [activator, partial curve, poor fit].

Which Potency does the source give for `COc1cccc(/C=N/n2c(C3CCCCC3)n[nH]c2=S)c1` here?
Its Potency is inconclusive: 3.55 µM [activator, single point].

For `O=C(C[n+]1ccc(-c2cc(C(=O)Nc3cccc(C(F)(F)F)c3)c3ccccc3n2)cc1)c1cccc([N+](=O)[O-])c1`, which “activation” value is on record?
The value was inactive: -51.9%.

For `Cc1ccc(O)c(Nc2nc(-c3ccccc3)nc3ccccc23)c1`, which “activation” value is on record?
The value was inactive: 2.71%.

With `O=C(Nc1nnc(C2CC2)o1)c1ccc(S(=O)(=O)N2CCCc3ccccc32)cc1` as the molecule, how does the “activation” value read?
The value was inactive: -9.41%.

With `CCCOc1ccc(C(O)(CCN2CCCCC2)c2ccccc2OC)cc1` (configuration not stated) as the molecule, how does the Potency read?
The Potency was inconclusive: 5.01 µM [activator, single point].

For `Clc1ccc(-c2nnc(N3CCOCC3)o2)cc1`, which “activation” value is on record?
The value was inactive: 26%.

For `O=C(NC(=S)Nc1ccc(S(=O)(=O)Nc2nccs2)cc1)C1CC1`, which Potency is on record?
The Potency was inconclusive: 5.01 µM [activator, single point].

Which Potency does the source give for `CC(C)(C)N(NC(=O)Nc1ccc(F)cc1)C(=O)c1ccccc1` here?
The Potency was inconclusive: 1 µM [activator, partial curve, poor fit].

With `O=C(Oc1oc(-c2ccco2)nc1C=Nc1ccc(Cl)cc1)c1ccco1` as the molecule, how does the Potency read?
The Potency was inconclusive: 28.2 µM [activator, single point].

For `Cc1c(OCC(=O)Nc2cccnc2)ccc2c3c(c(=O)oc12)CCC3`, which Potency is on record?
Its Potency is inconclusive: 28.2 µM [activator, single point].

Which Potency does the source give for `Cc1c(NC(=S)NC(=O)c2cccc([N+](=O)[O-])c2)c(=O)n(-c2ccccc2)n1C` here?
Its Potency is inconclusive: 5.62 µM [activator, partial curve, poor fit].

For `COc1ccc2nc(NC(=O)c3ccccc3F)sc2c1`, which Potency is on record?
Its Potency is inconclusive: 3.55 µM [activator, single point].

Which “activation” value does the source give for `O=C(CCC(F)(F)F)N1CCCC(CO)(CCc2ccccc2)C1` (configuration not stated) here?
Its value is inactive: 25.2%.

With `COc1ccc(-c2nc3cc(C)ccn3c2NCc2ccc3c(c2)OCO3)cc1` as the molecule, how does the “activation” value read?
Its value is inactive: 11.4%.

Which “activation” value does the source give for `FC(F)(F)c1ccc(N=Cc2sc(N3CCOCC3)nc2-c2ccccc2)cc1` here?
The value was inactive: -26.5%.

For `COc1ccc(/C=N\NC(=O)c2ccccc2Br)cc1COc1c(F)c(F)cc(F)c1F`, which Potency is on record?
Its Potency is inconclusive: 3.98 µM [activator, partial curve, poor fit].

Which Potency does the source give for `S=C(Nc1ccc(Cl)c(Cl)c1)N1CCCC1` here?
The Potency was inconclusive: 2.82 µM [activator, single point].

For `COc1ccc(-c2nn(-c3ccccc3)cc2N)cc1`, which Potency is on record?
Its Potency is inconclusive: 0.447 µM [activator, full curve, poor fit].

For `O=C(CCn1cnc2ccccc21)N=Nc1c(O)[nH]c2ccccc12`, which Potency is on record?
Its Potency is inconclusive: 5.01 µM [activator, single point].

For `O=C(CSc1nnc(-c2ccccn2)o1)Nc1ccccc1C(F)(F)F`, which Potency is on record?
Its Potency is inconclusive: 4.47 µM [activator, single point].

With `CC1(C)Cc2c(sc3nnn(Cc4ccccc4)c(=O)c23)CO1` as the molecule, how does the “activation” value read?
The value was inactive: -15.7%.

Which Potency does the source give for `O=C(CCC(=O)N1CCN(c2ccccn2)CC1)Nc1nnc(C(F)(F)F)s1` here?
The Potency was inconclusive: 28.2 µM [activator, single point].

With `O=C(NCc1ccccc1)c1cc(-c2cccs2)on1` as the molecule, how does the Potency read?
Its Potency is inconclusive: 28.2 µM [activator, single point].

Which Potency does the source give for `O=[N+]([O-])c1cccc2c1ccc1ncccc12` here?
Its Potency is inconclusive: 3.16 µM [activator, partial curve, poor fit].

With `Cn1nc(C(=O)NCc2ccc(Cl)cc2)c2c1-c1ccccc1S(=O)(=O)C2` as the molecule, how does the Potency read?
The Potency was inconclusive: 15.8 µM [activator, single point].

Which “activation” value does the source give for `COC(=O)c1cn(C(=O)c2ccccc2Cl)c2ccccc12` here?
Its value is inactive: 9.86%.

For `CS(=O)(=O)Nc1cccc(C2=NN(C(=O)c3ccco3)C(c3cccs3)C2)c1` (configuration not stated), which “activation” value is on record?
The value was inactive: -24.9%.

With `CC(CC(=O)Nc1ccc(C(N)=O)cc1)c1ccccc1` (configuration not stated) as the molecule, how does the Potency read?
Its Potency is inconclusive: 5.01 µM [activator, single point].

With `CC(C)c1nc(SCC(=O)Nc2c[nH]c(=O)[nH]c2=O)c2cnn(-c3ccccc3)c2n1` as the molecule, how does the Potency read?
The Potency was inconclusive: 4.47 µM [activator, partial curve, poor fit].

With `O=C(/C=C/c1ccc2c(c1)OCO2)NCCCN1CCOCC1` as the molecule, how does the “activation” value read?
The value was inactive: 19.5%.

Which Potency does the source give for `CC1(C)CC2(CCO1)OC(=O)CC2C(=O)Nc1ccccc1Cl` (configuration not stated) here?
The Potency was inconclusive: 8.91 µM [activator, partial curve, poor fit].

Which Potency does the source give for `CC(C)(C)c1cc(N)n2nc(C(C)(C)C)cc2n1` here?
The Potency was inconclusive: 28.2 µM [activator, single point].

With `CCOC(=O)C1CCN(S(=O)(=O)c2c(C(=O)N3CCCCC3)c(C)n(C)c2C)CC1` as the molecule, how does the Potency read?
Its Potency is inconclusive: 1.12 µM [activator, single point].

For `Cc1cc(C)nc(/N=C(\N)Nc2ccc(-c3ccccc3)cc2)n1`, which Potency is on record?
The Potency was inconclusive: 14.1 µM [activator, single point].

Which Potency does the source give for `COC(=O)C1=C(CS(=O)(=O)c2ccccc2)NC(=O)NC1c1ccc(OC)c(OC)c1` (configuration not stated) here?
The Potency was inconclusive: 28.2 µM [activator, single point].

Which Potency does the source give for `O=C(CCC(=O)c1cccs1)NC1CCCCCC1` here?
The Potency was inconclusive: 3.16 µM [activator, single point].

With `CCCCc1nc2c(C)c(N)cnc2n1Cc1cccc([N+](=O)[O-])c1` as the molecule, how does the Potency read?
Its Potency is inconclusive: 5.01 µM [activator, single point].

Which Potency does the source give for `Cc1cc(C(=O)NCc2cc(C(=O)O)co2)co1` here?
The Potency was inconclusive: 2.82 µM [activator, single point].
